No constants are given. Whether binding was seen depends on the method and setting. Some entries that bind do so weakly or less than the wild type.
T1: human OX40 (form used in the assay not stated) (human) (UniProt P43489)
T1 sequence (looked up): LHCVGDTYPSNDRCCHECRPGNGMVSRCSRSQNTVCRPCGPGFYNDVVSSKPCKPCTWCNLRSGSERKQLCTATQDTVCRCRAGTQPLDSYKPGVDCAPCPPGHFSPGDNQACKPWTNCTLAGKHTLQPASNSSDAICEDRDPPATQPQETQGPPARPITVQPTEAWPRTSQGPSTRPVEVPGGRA


Columns and labels:
[1] = target: T1, human OX40 (form used in the assay not stated) (human); assay: OX40 binding titration with OD readout (assay format and form of OX40 not described); x axis 'Log concentration, µg/ml Fab'
[2] = target: T1, human OX40 (form used in the assay not stated) (human); assay: OX40 binding assay of FIG. 13
[3] = target: T1, human OX40 (form used in the assay not stated) (human); assay: competition assay for OX40 with OD readout; x axis 'fold excess competitor' (no concentration unit); labelled or competed species not described
[4] = target: T1, human OX40 (form used in the assay not stated) (human); assay: competition assay of FIG. 15, format not described
[5] = target: human OX40 receptor (CD134), full length, on the cell surface (human) (UniProt P43489); assay: flow cytometry, PE-conjugated A10-F on activated CD4+ T-cells

Row | binding [1] | binding [2] | binding [3] | binding [4] | binding [5] | Binder
1 | binds | binds | binds | binds |  | humanized anti-OX40 antibody A10(TH)hu336F (antibody, V domains shown, also called humanized clone A10(TH)hu336F; 'humanized' A10 molecule) VH: QVQLVQSGAEVKKPGASVKVSCKASGYTFTSYWMHWVRQAPGQGLEWMGEIHPKSGNSNYNEKFKGRVTMTRDTSTSTVYMELSSLRSEDTAVYYCARGPEYSNFWFAYWGQGTLVTVSS VL: DIVLTQSPTSLAVSLGQRATISCKASQTVDYDGDSYMHWYQQKPGQPPKLLIYAASNLESGVPDRFSGSGSGTDFTLTISSLQAEDVAVYYCHQSNEDPWTFGQGTKVEIK
2 |  |  |  |  | binds | humanized A10 whole antibody F (A10 LC (TH) hu 336 / A10 humanized) (antibody, V domains shown, also called A10-F; humanized variant A10-F) VH: QVQLVQSGAEVKKPGASVKVSCKASGYTFTSYWMHWVRQAPGQGLEWMGEIHPKSGNSNYNEKFKGRVTMTRDTSTSTVYMELSSLRSEDTAVYYCARGPEYSNFWFAYWGQGTLVTVSS VL: DIVLTQSPTSLAVSLGQRATISCKASQTVDYDGDSYMHWYQQKPGQPPKLLIYAASNLESGVPDRFSGSGSGTDFTLTISSLQAEDVAVYYCHQSNEDPWTFGQGTKVEIK

From patent publication US20100136030A1 (published 2010)
